Results published in paper PMC7819943, “Rice protein-binding microarrays: a tool to detect cis-acting elements near promoter regions in rice”.
The list shows a part of the results.

By UniProt entry, the sequences of proteins in these tests, tags left out.
UniProt Q0JBA9, entry or part of it: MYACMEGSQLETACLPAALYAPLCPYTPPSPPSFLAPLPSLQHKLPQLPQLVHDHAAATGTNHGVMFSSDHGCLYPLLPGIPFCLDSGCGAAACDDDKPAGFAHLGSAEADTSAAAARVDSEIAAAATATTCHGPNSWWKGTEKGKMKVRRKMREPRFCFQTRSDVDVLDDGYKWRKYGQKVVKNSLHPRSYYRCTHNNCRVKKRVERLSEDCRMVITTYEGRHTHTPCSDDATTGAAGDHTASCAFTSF

What follows are sequences tested against OsWRKY34 (Oryza sativa, UniProt Q0JBA9 1-250) (assay: protein-binding microarray (RPBM); PBS, 2% BSA, 51.3 ng/ul salmon testes DNA, 50 uM zinc acetate, 200 nM TF, 25 C, 1 h; high values mean tight binding). Conditions: protein: recombinant; tags: N-terminal polyhistidine and DsRed monomer fusion (pET32a); label: CyDye5-dUTP incorporated in the synthesized complementary strand; 3' TTTTT single-stranded linker to array surface; dsDNA, one strand shown.
Outline: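 Transcription factors were made in E. coli BL21-CodonPlus as N-terminal fusions to a polyhistidine tag and DsRed, then purified on Ni–NTA. After primer extension with Cy5-dUTP and blocking with 2% BSA, a custom Agilent array was exposed for 1 h at 25 °C to 200 nM protein in PBS, 2% BSA, salmon testes DNA and 50 µM zinc acetate. Washed arrays were scanned on an Axon 4000B, and the binding signal is per-feature fluorescence intensity in arbitrary units.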
In the case of “CCGTCGCCGTCCACACCAGTCGCTGAGCCAGCTGCGACCGCGGAGTCACCTAGTGCAG”, the binding signal was 8660 fluorescence intensity (a.u.).
With “AACGGTCGCCCCGCTCCGCCGTTTTTCCACCGGTTTTTCACGGAGTCACCTAGTGCAG” the binding signal was 11000 fluorescence intensity (a.u.).
For “GCTGATTTAAGGTTACGTGGGTGTGCTTGAGAAGAAGGGGCGGAGTCACCTAGTGCAG”, the binding signal was 8260 fluorescence intensity (a.u.).
With “TGTCACAGTGTTTTGTTTGTGTTTTTGACCTTGCTTTCCTCGGAGTCACCTAGTGCAG” the binding signal was 16800 fluorescence intensity (a.u.).
For “AAGCTAGCCCGACAACTTTACTATAACGCTTTTCATGTTACGGAGTCACCTAGTGCAG”, the binding signal was 11400 fluorescence intensity (a.u.).
“TAAAAAAGTCAACGGCGTTAAACATTTTGGGATGGAGGGACGGAGTCACCTAGTGCAG” was tested, and the binding signal was 11200 fluorescence intensity (a.u.).
“GCTCCTCAGGCACAAGCACGCCACACACTCTCTCATCTCACGGAGTCACCTAGTGCAG” was tested, and the binding signal was 9470 fluorescence intensity (a.u.).
“AGGCGAATAATTCCGCTGTTGCTTCGCTGCCTTTTGCCTTCGGAGTCACCTAGTGCAG” was tested, and the binding signal was 8630 fluorescence intensity (a.u.).
In the case of “AATCCAATTAAGCTGCGTACATCGCACATTTCGTGCTGCCCGGAGTCACCTAGTGCAG”, the binding signal was 8200 fluorescence intensity (a.u.).
With “CCCTTCCAAGATCCGATTTCCCCACCACCGCTCGGTCGCCCGGAGTCACCTAGTGCAG” the binding signal was 9280 fluorescence intensity (a.u.).
“AATCAAACGACCATTCCTATATTTTTTCTGTGTTTTGTAACGGAGTCACCTAGTGCAG” was tested, and the binding signal was 9860 fluorescence intensity (a.u.).
In the case of “TTACAACAAAACTAAGTAGGGGTGGGTATTTGCAACAAAACGGAGTCACCTAGTGCAG”, the binding signal was 17600 fluorescence intensity (a.u.).
In the case of “CCCCTTTACCCCGCCCGTTTCCTCTTGTTTCCGCCATGCCCGGAGTCACCTAGTGCAG”, the binding signal was 8730 fluorescence intensity (a.u.).
For “GGGCAGCAGTTGCGGGACGTGCGGGGCGAGTGCGGGGAGTCGGAGTCACCTAGTGCAG”, the binding signal was 8950 fluorescence intensity (a.u.).
“AATCGAAATTTACTGTTCGGCTTTTGATACACCTTGACTCCGGAGTCACCTAGTGCAG” was tested, and the binding signal was 8560 fluorescence intensity (a.u.).
For “TCACAGTGGATTGCCACACCATTCGAAGTTCTTTATATGCCGGAGTCACCTAGTGCAG”, the binding signal was 9140 fluorescence intensity (a.u.).
With “ACTCATATTGCAAATGTCATGTTTATTGTCTTAATATTTTCGGAGTCACCTAGTGCAG” the binding signal was 8430 fluorescence intensity (a.u.).
“TAACTTCTCCTCTCTCGTTTCATATGTACGCATTTCCTCACGGAGTCACCTAGTGCAG” was tested, and the binding signal was 8930 fluorescence intensity (a.u.).
“CCTGTTCGCAGCGCATGTGAAGCCATTGCATTGTACTAACCGGAGTCACCTAGTGCAG” was tested, and the binding signal was 8150 fluorescence intensity (a.u.).
“ACGACGTGAGGGAGGTGGTTGGGGCTCGTGATGGCGGTGTCGGAGTCACCTAGTGCAG” was tested, and the binding signal was 8140 fluorescence intensity (a.u.).
For “CTGCTTCCATCCAACAGCATGTCCACATCCATATCCAATCCGGAGTCACCTAGTGCAG”, the binding signal was 9690 fluorescence intensity (a.u.).
In the case of “TGCTTTTCGTACCAATTACTACTACTTCAGTTTCTAACCACGGAGTCACCTAGTGCAG”, the binding signal was 11000 fluorescence intensity (a.u.).
“CTCGTCCTTCCACACCACGTCCAGGTCATTTCCGCCTCCTCGGAGTCACCTAGTGCAG” was tested, and the binding signal was 10000 fluorescence intensity (a.u.).
With “CCATCTTGTTTCGTCGTTTGCTGCGGCCTTCGGTTGAGGACGGAGTCACCTAGTGCAG” the binding signal was 14700 fluorescence intensity (a.u.).
In the case of “CCACCATCACCATCTAAACGTTACAGCCACAATGTTCTAGCGGAGTCACCTAGTGCAG”, the binding signal was 9020 fluorescence intensity (a.u.).
In the case of “AAACTTTTTCTCACCTTTGAGCTGTCCCTATATACACAACCGGAGTCACCTAGTGCAG”, the binding signal was 8490 fluorescence intensity (a.u.).
“AAAGTTAACATACTTTTGTCTTAATTTGCATGGTTTCTTACGGAGTCACCTAGTGCAG” was tested, and the binding signal was 9520 fluorescence intensity (a.u.).
With “CATGGCGAACACACCCTAATTCTGATCATCTTTAATTTCTCGGAGTCACCTAGTGCAG” the binding signal was 9060 fluorescence intensity (a.u.).
For “AACACAACAAACTGTCGCCACTGGCTCTGTTTCACTTGCTCGGAGTCACCTAGTGCAG”, the binding signal was 8820 fluorescence intensity (a.u.).
In the case of “TCTCCCGTCGGATACTGTCGGTAGTAGCTTTTTGCCGTGTCGGAGTCACCTAGTGCAG”, the binding signal was 8260 fluorescence intensity (a.u.).
“GTTCCACACGCCCACCCCATCCACAATAATATATCCAATCCGGAGTCACCTAGTGCAG” was tested, and the binding signal was 8390 fluorescence intensity (a.u.).
For “GGACTGCACTATGAATTAATTGGATCACACCTGCTGCTAGCGGAGTCACCTAGTGCAG”, the binding signal was 8550 fluorescence intensity (a.u.).
“GTTGCTTAGATTCGGTTTCTGATATAATCTGACTTGTACACGGAGTCACCTAGTGCAG” was tested, and the binding signal was 8190 fluorescence intensity (a.u.).
With “CGCGCACCCGTTAACGTATTGATCGACCTTGCCGTTCGTCCGGAGTCACCTAGTGCAG” the binding signal was 11300 fluorescence intensity (a.u.).
For “CTTCTTTAAACCGCGCCGCGCCGCGCCTACCCAAATATATCGGAGTCACCTAGTGCAG”, the binding signal was 10500 fluorescence intensity (a.u.).
For “GCTGTTGACTTTCGACCTACGTTTGACCATTCGTTTTATTCGGAGTCACCTAGTGCAG”, the binding signal was 20600 fluorescence intensity (a.u.).
In the case of “ATCCTGGTAGTGATCAATAGCTCCTAACCTTTTTTTTTTACGGAGTCACCTAGTGCAG”, the binding signal was 8100 fluorescence intensity (a.u.).
For “CGCCGCCACCACTAGCTCGCTTCATTTCCACCGCACGCACCGGAGTCACCTAGTGCAG”, the binding signal was 8520 fluorescence intensity (a.u.).
With “GCCAACGCCGTGCCGTGTCCATCTACCGCCGCCCACAACTCGGAGTCACCTAGTGCAG” the binding signal was 9230 fluorescence intensity (a.u.).
In the case of “CATGGGGAGAAGGGAATGTGGGGAGGGAGACAGGAGCTGACGGAGTCACCTAGTGCAG”, the binding signal was 9030 fluorescence intensity (a.u.).
With “GAAGATCGACGGTGCACATATATACTTGCGTTATTTCACTCGGAGTCACCTAGTGCAG” the binding signal was 9440 fluorescence intensity (a.u.).
In the case of “ACGTGTCCTTCTCTCTTTTTTTCTTTTTCGTTTTCTTCTCCGGAGTCACCTAGTGCAG”, the binding signal was 8280 fluorescence intensity (a.u.).
“TGCTTATCCGGACATACTACGCGAGTAGGGGATGGGGCCACGGAGTCACCTAGTGCAG” was tested, and the binding signal was 10800 fluorescence intensity (a.u.).
“TTTTTTTGGGGATTTATCTTTTTTTGGGGATTTTTTTTTTCGGAGTCACCTAGTGCAG” was tested, and the binding signal was 12100 fluorescence intensity (a.u.).
“TGTCGTCCCGTACTACGTCATCTCCAGTCATCTTCTCCCACGGAGTCACCTAGTGCAG” was tested, and the binding signal was 8490 fluorescence intensity (a.u.).
For “ATGATTCTTGATGCAAACTCAGTCTAGGTCTTTCTTTGTCCGGAGTCACCTAGTGCAG”, the binding signal was 8910 fluorescence intensity (a.u.).
For “CCTTTGTTGTACTAGCCACCAGAAACCAGTGATCAGAATACGGAGTCACCTAGTGCAG”, the binding signal was 8110 fluorescence intensity (a.u.).
“TCCTCCTTTTTCTTGTACTCGCAACCTCTCTCACGTTGCGCGGAGTCACCTAGTGCAG” was tested, and the binding signal was 8090 fluorescence intensity (a.u.).
“GTGCATTTCGAAATCTGACCGTTCAGCGACCAACTGCATCCGGAGTCACCTAGTGCAG” was tested, and the binding signal was 8700 fluorescence intensity (a.u.).
“GGTGGGGATTACTCTTGGAGACAAATTGCTCTCCGAATTTCGGAGTCACCTAGTGCAG” was tested, and the binding signal was 13800 fluorescence intensity (a.u.).
In the case of “GGGTGTATCTTTGATGGGCTTTAAATGGGCCCTCGGCCGACGGAGTCACCTAGTGCAG”, the binding signal was 8430 fluorescence intensity (a.u.).
For “CTTAGCTCGTATGTAGACTTTTGATGGCTTAATCCTATTTCGGAGTCACCTAGTGCAG”, the binding signal was 8550 fluorescence intensity (a.u.).
In the case of “TTCTCAACTCCAATCCTCATTCCATTTCCATATTCCGTCTCGGAGTCACCTAGTGCAG”, the binding signal was 10200 fluorescence intensity (a.u.).
“ACAAAACATCACAAGTTACATTCCCACAATTTTGGGCATTCGGAGTCACCTAGTGCAG” was tested, and the binding signal was 9040 fluorescence intensity (a.u.).
